According to US20090239850A1:
No constants are given. Whether binding was seen depends on the method and setting. Binding calls can cover weak binding; strength is not graded here.

Protein sequences, listed by entry. Tags and fused reporters are not part of them. Lines headed by an entry give the natural chain unless they say otherwise; changes in a name come on top. Residues count along the entry.
UniProt Q05397, residues 677-1052: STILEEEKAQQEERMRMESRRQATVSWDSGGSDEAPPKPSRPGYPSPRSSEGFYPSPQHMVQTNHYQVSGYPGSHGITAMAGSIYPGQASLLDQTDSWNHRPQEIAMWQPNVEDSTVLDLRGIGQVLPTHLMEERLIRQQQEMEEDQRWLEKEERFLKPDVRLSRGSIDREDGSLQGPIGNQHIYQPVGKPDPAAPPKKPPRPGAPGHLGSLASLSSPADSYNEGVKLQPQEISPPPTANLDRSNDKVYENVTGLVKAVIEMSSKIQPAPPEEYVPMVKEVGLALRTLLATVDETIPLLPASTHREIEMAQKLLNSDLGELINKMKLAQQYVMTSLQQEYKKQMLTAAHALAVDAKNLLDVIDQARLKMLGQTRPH
UniProt P35916: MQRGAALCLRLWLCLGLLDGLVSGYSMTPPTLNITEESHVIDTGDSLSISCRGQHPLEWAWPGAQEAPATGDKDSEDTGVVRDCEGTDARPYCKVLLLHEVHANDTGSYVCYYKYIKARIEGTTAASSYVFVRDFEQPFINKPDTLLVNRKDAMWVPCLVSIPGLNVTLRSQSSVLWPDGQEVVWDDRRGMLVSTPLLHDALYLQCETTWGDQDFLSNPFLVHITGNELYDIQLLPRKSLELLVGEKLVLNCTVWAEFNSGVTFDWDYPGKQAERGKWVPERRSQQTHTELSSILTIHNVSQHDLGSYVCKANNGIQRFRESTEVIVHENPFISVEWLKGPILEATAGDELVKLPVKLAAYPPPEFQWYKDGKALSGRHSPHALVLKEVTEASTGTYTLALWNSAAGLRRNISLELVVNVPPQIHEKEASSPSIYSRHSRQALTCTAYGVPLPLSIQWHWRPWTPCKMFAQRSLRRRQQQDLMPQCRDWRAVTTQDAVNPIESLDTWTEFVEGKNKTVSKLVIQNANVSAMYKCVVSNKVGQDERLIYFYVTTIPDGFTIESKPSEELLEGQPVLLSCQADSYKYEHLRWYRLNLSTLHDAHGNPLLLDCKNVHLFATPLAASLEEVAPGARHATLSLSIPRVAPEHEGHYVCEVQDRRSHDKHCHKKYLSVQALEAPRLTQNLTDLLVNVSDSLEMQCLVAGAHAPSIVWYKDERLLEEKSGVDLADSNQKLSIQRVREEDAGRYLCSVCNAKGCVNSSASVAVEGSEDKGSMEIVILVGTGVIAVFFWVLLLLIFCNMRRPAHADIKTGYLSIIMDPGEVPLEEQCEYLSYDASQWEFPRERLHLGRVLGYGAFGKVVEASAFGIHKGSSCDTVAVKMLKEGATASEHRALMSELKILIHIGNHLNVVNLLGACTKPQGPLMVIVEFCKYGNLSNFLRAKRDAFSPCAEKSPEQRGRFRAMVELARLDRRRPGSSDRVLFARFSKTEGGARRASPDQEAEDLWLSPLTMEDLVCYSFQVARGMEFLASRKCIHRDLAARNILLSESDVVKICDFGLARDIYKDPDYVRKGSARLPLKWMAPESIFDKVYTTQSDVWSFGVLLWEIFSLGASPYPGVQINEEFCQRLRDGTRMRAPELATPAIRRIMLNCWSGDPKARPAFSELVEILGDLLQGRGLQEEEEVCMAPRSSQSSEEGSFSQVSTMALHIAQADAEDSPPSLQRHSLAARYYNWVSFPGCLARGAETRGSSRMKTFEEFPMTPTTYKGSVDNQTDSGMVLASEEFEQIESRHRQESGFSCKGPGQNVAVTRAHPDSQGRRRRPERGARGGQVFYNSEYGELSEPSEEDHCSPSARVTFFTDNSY

Target: C-terminus of FAK (UniProt Q05397)
Test: in vitro and in vivo binding studies

## N-terminus of VEGFR-3, containing the peptide identified by phage display (from UniProt P35916) (receptor)
  binding: binds
